Consider 7 molecules from article PMC9870865.

By UniProt entry, the sequences of proteins in these tests, tags left out.
UniProt P78527: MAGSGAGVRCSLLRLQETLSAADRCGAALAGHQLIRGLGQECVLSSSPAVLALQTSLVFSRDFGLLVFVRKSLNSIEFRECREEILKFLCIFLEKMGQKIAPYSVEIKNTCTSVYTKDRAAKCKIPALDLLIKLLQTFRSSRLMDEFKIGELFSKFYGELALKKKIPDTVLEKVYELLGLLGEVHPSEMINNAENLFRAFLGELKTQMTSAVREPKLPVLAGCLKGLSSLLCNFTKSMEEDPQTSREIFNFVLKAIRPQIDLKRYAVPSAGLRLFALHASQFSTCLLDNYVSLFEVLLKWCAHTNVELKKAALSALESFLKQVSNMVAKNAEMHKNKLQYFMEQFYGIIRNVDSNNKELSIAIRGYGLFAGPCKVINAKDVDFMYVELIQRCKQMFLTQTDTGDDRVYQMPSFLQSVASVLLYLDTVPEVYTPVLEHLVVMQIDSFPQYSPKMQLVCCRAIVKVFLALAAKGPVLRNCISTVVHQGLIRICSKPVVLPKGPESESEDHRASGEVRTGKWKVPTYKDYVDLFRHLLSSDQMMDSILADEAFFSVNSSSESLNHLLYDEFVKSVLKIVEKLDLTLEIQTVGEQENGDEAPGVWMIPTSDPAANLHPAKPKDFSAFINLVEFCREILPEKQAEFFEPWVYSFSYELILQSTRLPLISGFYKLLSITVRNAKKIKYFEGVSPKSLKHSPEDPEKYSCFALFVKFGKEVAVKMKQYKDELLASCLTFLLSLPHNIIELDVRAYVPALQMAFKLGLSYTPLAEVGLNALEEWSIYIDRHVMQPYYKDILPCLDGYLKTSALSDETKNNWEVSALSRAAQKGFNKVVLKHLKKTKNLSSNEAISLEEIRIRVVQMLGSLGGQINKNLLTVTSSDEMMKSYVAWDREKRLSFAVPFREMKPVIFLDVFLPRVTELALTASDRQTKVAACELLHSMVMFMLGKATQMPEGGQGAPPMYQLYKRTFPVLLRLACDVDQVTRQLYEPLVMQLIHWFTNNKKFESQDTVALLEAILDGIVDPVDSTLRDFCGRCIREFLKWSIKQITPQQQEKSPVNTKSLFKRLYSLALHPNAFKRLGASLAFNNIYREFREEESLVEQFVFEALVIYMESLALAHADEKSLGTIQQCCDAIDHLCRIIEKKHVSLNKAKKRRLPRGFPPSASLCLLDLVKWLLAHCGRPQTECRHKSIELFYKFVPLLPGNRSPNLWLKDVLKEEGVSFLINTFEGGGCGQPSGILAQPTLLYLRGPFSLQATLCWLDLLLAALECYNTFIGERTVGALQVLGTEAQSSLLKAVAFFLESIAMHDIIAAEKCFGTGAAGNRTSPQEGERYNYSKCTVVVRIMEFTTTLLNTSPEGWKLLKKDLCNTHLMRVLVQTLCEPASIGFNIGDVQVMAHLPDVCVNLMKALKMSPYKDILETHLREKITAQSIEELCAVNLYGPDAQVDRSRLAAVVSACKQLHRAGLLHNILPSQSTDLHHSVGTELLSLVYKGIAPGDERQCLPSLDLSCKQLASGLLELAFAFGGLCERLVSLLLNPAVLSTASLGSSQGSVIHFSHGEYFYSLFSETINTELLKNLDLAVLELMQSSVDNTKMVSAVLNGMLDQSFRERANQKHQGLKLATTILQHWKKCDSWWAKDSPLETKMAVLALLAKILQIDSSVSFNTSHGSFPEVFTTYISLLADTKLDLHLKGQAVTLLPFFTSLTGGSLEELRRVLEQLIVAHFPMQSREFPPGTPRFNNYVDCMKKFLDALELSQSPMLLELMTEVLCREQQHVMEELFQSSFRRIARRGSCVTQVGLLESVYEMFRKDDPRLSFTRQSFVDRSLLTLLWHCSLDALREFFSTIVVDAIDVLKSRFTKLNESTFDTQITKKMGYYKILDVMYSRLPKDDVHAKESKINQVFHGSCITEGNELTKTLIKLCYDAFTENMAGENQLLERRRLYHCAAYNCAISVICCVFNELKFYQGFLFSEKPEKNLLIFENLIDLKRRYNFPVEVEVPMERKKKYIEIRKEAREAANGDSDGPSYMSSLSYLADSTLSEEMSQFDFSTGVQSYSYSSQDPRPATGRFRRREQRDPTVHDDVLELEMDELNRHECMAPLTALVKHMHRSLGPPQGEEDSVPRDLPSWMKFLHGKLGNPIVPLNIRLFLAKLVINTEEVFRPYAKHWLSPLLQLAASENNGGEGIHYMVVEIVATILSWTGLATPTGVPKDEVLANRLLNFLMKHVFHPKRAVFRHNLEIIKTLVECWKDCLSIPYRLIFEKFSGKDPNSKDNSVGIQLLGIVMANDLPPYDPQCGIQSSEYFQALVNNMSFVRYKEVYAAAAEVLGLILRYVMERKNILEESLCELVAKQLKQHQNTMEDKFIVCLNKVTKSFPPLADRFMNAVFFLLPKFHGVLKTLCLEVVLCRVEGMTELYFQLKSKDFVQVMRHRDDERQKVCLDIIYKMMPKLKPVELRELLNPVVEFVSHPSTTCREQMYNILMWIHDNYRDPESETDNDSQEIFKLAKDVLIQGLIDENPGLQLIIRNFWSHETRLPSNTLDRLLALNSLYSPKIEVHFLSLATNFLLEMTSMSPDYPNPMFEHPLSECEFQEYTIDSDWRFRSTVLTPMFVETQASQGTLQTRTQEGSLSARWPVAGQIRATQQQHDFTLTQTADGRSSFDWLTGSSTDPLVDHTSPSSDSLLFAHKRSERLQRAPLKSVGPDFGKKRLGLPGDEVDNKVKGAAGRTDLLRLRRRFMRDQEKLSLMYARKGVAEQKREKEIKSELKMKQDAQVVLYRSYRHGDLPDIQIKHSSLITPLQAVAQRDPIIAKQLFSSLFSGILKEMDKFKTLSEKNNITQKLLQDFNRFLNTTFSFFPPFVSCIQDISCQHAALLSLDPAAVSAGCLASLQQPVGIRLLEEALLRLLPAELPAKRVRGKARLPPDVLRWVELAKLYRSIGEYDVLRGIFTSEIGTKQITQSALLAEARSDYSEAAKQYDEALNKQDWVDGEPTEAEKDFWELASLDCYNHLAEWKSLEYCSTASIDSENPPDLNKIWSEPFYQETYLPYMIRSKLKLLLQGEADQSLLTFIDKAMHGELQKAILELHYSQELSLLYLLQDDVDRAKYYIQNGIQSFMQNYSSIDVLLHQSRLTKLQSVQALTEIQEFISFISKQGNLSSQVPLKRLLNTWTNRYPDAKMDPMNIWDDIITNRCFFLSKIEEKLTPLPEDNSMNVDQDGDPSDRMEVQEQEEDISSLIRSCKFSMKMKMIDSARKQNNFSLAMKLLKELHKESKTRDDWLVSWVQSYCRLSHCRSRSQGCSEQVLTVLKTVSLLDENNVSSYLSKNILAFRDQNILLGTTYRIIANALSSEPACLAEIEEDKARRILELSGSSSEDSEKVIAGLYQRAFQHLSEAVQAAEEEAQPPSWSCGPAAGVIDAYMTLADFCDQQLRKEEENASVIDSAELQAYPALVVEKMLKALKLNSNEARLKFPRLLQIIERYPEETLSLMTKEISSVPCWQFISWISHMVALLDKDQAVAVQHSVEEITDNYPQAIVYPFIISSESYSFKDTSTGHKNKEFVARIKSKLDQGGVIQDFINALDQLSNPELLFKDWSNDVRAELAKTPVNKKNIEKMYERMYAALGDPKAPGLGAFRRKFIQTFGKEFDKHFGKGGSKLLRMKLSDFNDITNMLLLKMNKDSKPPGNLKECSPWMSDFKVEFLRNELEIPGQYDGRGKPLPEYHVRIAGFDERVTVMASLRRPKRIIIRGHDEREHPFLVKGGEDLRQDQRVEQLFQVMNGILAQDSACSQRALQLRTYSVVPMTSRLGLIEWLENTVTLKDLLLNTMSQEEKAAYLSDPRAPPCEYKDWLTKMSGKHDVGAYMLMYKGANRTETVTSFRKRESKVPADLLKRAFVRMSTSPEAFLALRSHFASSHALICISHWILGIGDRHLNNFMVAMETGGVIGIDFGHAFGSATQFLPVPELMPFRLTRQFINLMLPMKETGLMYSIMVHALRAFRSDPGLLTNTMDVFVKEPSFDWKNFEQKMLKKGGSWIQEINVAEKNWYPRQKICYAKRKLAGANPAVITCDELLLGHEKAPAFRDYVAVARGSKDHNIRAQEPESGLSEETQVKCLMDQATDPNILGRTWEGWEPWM
UniProt Q99873: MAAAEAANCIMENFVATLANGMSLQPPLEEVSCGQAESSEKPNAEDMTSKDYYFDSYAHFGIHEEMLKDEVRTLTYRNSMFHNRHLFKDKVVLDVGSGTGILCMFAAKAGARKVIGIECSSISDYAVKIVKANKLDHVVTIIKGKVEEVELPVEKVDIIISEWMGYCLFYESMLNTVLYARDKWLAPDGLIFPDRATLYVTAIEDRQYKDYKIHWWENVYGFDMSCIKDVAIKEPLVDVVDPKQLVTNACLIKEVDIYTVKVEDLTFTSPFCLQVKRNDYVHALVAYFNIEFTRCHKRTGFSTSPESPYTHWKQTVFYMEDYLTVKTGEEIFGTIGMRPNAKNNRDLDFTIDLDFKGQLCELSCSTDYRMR
UniProt Q9Y265: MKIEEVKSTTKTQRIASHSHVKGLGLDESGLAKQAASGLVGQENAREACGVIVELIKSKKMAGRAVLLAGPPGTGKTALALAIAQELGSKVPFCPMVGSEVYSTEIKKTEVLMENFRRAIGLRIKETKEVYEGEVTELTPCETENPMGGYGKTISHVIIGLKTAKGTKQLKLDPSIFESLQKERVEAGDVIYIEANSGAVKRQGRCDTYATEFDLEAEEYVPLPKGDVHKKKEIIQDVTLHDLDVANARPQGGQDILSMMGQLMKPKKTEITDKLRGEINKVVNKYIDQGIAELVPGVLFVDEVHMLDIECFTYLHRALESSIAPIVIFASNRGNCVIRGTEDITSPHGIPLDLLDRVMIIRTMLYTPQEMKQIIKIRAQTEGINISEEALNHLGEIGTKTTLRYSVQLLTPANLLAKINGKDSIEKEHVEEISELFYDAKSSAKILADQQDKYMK
UniProt P13010: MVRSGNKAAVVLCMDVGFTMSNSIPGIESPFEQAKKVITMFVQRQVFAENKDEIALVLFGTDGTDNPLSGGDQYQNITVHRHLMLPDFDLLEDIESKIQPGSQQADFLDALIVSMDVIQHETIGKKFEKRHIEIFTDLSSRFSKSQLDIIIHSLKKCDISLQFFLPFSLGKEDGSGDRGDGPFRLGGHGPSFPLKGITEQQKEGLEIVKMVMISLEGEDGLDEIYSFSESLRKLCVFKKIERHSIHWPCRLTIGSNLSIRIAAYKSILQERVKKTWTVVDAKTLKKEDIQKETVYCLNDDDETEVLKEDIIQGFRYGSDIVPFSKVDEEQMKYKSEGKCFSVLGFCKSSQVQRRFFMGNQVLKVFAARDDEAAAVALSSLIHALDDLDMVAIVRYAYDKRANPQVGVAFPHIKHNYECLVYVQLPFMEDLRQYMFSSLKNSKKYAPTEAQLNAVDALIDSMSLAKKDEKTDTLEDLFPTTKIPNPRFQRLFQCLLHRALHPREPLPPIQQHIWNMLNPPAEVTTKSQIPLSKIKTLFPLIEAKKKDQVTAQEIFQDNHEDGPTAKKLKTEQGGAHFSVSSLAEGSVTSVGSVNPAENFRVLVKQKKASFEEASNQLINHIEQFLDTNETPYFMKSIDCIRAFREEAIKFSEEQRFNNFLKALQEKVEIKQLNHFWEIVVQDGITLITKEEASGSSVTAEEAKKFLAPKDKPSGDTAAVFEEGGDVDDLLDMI
UniProt P12956: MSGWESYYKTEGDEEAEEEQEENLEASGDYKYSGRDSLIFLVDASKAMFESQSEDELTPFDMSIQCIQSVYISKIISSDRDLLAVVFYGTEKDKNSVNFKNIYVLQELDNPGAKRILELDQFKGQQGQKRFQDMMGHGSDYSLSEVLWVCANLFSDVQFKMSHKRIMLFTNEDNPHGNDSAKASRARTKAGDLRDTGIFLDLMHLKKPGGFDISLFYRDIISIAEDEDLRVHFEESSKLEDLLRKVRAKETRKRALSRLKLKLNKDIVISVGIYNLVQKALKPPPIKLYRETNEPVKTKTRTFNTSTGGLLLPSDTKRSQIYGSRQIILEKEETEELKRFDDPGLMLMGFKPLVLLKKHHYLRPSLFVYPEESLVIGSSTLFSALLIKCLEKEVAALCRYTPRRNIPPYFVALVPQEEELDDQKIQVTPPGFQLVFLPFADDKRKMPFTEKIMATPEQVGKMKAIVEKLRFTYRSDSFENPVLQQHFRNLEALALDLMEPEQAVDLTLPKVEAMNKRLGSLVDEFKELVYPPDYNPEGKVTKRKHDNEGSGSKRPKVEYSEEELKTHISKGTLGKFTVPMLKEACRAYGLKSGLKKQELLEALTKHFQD

The chains are these.
T1: GFP-TRIM29 (UniProt Q14134)
T1 sequence: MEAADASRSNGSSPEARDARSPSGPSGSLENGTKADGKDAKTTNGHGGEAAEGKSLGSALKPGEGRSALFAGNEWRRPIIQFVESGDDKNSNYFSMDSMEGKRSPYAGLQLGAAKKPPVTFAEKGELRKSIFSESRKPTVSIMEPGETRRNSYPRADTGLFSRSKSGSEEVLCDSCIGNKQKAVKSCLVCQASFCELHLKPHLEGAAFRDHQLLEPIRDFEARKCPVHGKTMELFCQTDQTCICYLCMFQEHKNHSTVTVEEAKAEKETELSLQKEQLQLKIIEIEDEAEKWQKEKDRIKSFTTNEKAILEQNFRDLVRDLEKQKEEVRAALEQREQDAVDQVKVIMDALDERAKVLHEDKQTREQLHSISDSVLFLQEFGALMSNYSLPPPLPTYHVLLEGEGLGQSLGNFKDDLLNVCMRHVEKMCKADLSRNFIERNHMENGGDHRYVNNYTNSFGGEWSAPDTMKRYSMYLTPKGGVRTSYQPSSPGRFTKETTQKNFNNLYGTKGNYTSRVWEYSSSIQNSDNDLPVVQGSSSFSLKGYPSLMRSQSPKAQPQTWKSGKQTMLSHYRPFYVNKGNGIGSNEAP

B1: TRIM29 (endogenous) (protein, UniProt Q14134 1-588)
chain: T1 sequence

No constants are given. Whether binding was seen depends on the method and setting. Binding seen in cells or lysates may run through a third protein. Here binding means that the protein was enriched with, or labelled near, the bait; the list need not be complete. For some of these results: Sequences can lack the tags named with a protein.

The target of one experiment is T1, GFP-TRIM29. The experiment in a line: affinity purification with mass spectrometry; GFP-Trap of GFP-TRIM29 (GFP as control) from stably expressing H69 SCLC cells lysed in NP-40 buffer; LC-MS/MS.
In the case of DNA-PK (from UniProt P78527 1-4128), the binding entry was “binds”.

For the molecule “NFIB (endogenous) (from UniProt O00712 1-420)”, the binding result is given as “binds”. On the same count and under the same terms, to PRMT1 (from UniProt Q99873 1-371) belongs “binds”. Same read-out and setting: to RUVBL1 (from UniProt Q9Y265 1-456) belongs “binds”; to XRCC5 (from UniProt P13010 1-732), “binds”.

As to XRCC6 (from UniProt P12956 1-609), the binding entry is “binds”.

A further experiment has as its target GFP-NFIB-WT (mouse) (UniProt P97863). The experiment in a line: affinity purification with mass spectrometry; GFP-Trap of GFP-NFIB-WT or GFP-NFIB-R388K from transiently transfected HeLa cells lysed in NP-40 buffer 24 h after transfection; LC-MS/MS.
On to B1, for which the binding result is listed as “binds”.
